US11912781B2, “Humanized complement 5A receptor 1 antibodies and methods of use thereof” (VISTERRA, INC., priority 2021, dated 2024)
The source holds more than one record for some entries. The other results are left out here. There may be further records. The records of an entry differ for a reason that is not stated; dose, time, organism, isomer or construct need not be as stated for each record.

Tested on: hC5aR1 mice
Experiment: C5a-induced neutropenia in transgenic human C5aR1 mice
Format: in vivo, mouse
Conditions: antibody 20 mg/kg or avacopan 30 mg/kg IV 1 h before 0.1 mg/kg human C5a, 1 min post-C5a
Protocol: Briefly, five groups of hC5aR1 mice were evaluated for inhibition of neutropenia. In the first group, 5 hC5aR1 mice were injected with PBS (vehicle), intravenously. […] In the third group, group 5 hC5aR1 mice were injected with exemplary biparatopic anti-C5aR1 antibody, c2137-e1711, intravenously at a dose of 20 mg/kg. In the fourth group, 5 hC5aR1 mice were injected with non-C5aR1 antibody (Motavizumab) intravenously at a dose of 20 mg/kg. In the fifth group, 5 hC5aR1 mice were injected with avacopan at a dose of 30 mg/kg, intravenously. One hour after injection of the PBS, exemplary antibodies, motavizumab or avacopan, 0.1 mg/kg of human C5a was injected into the hC5aR1 mice. The blood was collected after 1 min, 5 min and 2 hr after injection of human C5a. The percent chance in neutrophils and average change in neutrophils were calculated in all three groups and are shown in FIG. 15B-15C. Neutrophil cell counts were assessed by gating CD45+/CD11b+/Ly6G+ cells.
The experimental details of this mouse in vivo assay are described in Example 11.
Table 19 summarizes the dosage regimen of the antibodies being tested, and the bleed times to determine neutropenia.

`Cc1ccc(NC(=O)[C@H]2CCCN(C(=O)c3c(C)cccc3F)[C@H]2c2ccc(NC3CCCC3)cc2)cc1C(F)(F)F` [Avacopan] was tested, and the “average reduction in neutrophil counts from baseline” value was 59% and 10%.
